Measured values as given in publication doi:10.1101/2023.03.08.531793.
No constants are given. Whether binding was seen depends on the method and setting. Some results given as binding are weak or reduced against the parent protein; the word gives no strength.

By UniProt entry, the sequences of proteins in these tests, tags left out.
UniProt Q8LDC8: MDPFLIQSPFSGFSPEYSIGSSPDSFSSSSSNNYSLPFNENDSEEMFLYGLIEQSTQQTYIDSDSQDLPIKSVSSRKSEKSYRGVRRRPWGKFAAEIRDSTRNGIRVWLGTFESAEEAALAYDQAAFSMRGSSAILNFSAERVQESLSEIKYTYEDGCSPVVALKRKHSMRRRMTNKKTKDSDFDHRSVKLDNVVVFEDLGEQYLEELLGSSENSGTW

Target: T1, pBD-ABI3 (Arabidopsis thaliana) (UniProt Q01593)
T1 sequence: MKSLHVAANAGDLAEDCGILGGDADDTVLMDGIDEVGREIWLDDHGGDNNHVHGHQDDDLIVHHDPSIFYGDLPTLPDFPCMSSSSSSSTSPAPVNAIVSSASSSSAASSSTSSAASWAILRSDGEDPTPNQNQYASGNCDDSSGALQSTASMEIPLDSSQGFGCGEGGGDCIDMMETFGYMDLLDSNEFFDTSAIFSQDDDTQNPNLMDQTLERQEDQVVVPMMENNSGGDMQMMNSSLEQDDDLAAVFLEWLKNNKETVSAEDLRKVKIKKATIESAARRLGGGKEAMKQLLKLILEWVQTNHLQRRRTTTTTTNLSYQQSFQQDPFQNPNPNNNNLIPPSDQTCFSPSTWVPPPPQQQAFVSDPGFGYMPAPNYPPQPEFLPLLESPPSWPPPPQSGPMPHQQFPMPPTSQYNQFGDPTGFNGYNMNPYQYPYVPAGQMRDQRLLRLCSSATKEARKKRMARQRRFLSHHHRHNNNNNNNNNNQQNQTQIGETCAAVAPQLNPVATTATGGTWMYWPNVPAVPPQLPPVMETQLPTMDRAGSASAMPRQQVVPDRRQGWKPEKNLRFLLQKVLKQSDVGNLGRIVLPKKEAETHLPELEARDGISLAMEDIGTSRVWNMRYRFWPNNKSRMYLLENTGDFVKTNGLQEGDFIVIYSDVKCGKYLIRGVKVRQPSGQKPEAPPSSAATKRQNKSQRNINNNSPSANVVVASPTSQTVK
Experiment: two-hybrid

- binding: binds
Substance: pAD-ERF1 (from UniProt Q8LDC8 1-218)
